According to paper PMC7456325:
Results are given in words; binding and its absence hold for the method and conditions named. Binding seen in cells or lysates may run through a third protein. Some binding calls cover weakened binding; strength is not graded here. Sequences can lack the tags named with a protein.

The chains behind the UniProt entries cited, without tags or fusion partners.
UniProt P97287: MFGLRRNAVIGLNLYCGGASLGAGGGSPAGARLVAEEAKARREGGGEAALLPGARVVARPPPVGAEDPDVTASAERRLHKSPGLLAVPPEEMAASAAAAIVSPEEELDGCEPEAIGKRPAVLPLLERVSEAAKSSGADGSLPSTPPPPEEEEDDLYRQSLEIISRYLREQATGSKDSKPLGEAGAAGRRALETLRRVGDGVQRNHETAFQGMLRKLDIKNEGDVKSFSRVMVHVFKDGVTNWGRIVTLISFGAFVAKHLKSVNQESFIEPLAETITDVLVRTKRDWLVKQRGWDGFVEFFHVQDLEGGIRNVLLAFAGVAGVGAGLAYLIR

Target: T1, HA-BAK (human) (UniProt Q16611)
T1 sequence: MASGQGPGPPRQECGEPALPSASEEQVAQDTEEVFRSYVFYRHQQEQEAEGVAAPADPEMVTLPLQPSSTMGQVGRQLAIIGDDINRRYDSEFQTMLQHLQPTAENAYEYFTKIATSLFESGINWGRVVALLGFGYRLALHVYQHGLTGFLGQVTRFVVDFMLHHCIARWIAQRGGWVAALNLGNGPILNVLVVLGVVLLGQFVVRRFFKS
Experiment: co-IP; lysates of Bax-/-/Bak-/- MEF in 20 mM Tris pH 7.4, 135 mM NaCl, 1.5 mM MgCl2, 1 mM EGTA, 10% glycerol with 1% Triton X-100; anti-HA or anti-FLAG agarose, 1 h at 4 °C, four washes; western blot

- binding: binds
Substance: endogenous MCL-1 (from UniProt P97287 1-331)
